# Structures can show the parent of a compound that is named as a salt. The list shows a part of the results. Small differences around the control level are noise.
# System: hPSC-derived cortical neurons (WA09)
# Test: nucleus roundness z-score vs screen plate; higher = rounder nuclei (more mature)
# Settings: 5 µM; treatment: days 7-14 after plating, readout day 21
row,Structure (SMILES),nucleus roundness z-score
1,NC(=O)c1cccc(-c2cccc(OC(=O)NC3CCCCC3)c2)c1,0.941
2,CCOC(=O)c1ccc(OC(=O)CCCCCNC(=N)N)cc1 [Gabexate Mesylate],-3.16
3,C[C@@H](Nc1cc(F)cc(F)c1)c1cc(C(=O)N(C)C)cc2c(=O)cc(N3CCOCC3)oc12,0.225
4,CC1=C(C(=O)OC2CCCCC2)C(c2ccc([N+](=O)[O-])cc2)C2=C(CC(C)(C)CC2=O)N1 (stereo not drawn),-0.486
5,COc1ccc2c(c1)c(CC(=O)OCC(=O)O)c(C)n2C(=O)c1ccc(Cl)cc1 [Acemetacin],-0.588
6,CN1CCOC(c2ccccc2)c2ccccc2C1 (stereo not drawn) [Nefopam HCl],-0.931
7,COc1ccc(COc2ccc(Cc3cnc(N)nc3N)cc2OC)cc1,-0.501
8,CCC[C@@H]1C[C@@H](C(=O)N[C@@H]([C@H]2O[C@H](SC)[C@H](O)[C@@H](O)[C@H]2O)[C@H](C)Cl)N(C)C1 [Clindamycin],-0.0153
9,OC[C@H]1OC(O)[C@H](O)[C@@H](O)[C@@H]1O (stereo partly drawn) [Dextrose],1.15
10,CC(=O)O[C@]1(C(C)=O)CC[C@H]2[C@@H]3C=C(Cl)C4=CC(=O)CC[C@]4(C)[C@H]3CC[C@@]21C [Chlormadinone acetate],0.262
11,CC(C)[C@H](O)C(=O)N[C@@H](C)C(=O)N[C@@H]1C(=O)N(C)CCc2ccccc21,0.824
12,Nc1nc(F)nc2c1ncn2[C@@H]1O[C@H](CO)[C@@H](O)[C@@H]1O [Fludarabine],-0.75
13,C[C@]12CC[C@H](O)CC1=CC[C@@H]1[C@@H]2CC[C@]2(C)C(n3cnc4ccccc43)=CC[C@@H]12 [Galeterone],0.0138

# 2 entries from above, with bars between the fields:
row | Structure (SMILES) | nucleus roundness z-score
5 | COc1ccc2c(c1)c(CC(=O)OCC(=O)O)c(C)n2C(=O)c1ccc(Cl)cc1 [Acemetacin] | -0.588
6 | CN1CCOC(c2ccccc2)c2ccccc2C1 (stereo not drawn) [Nefopam HCl] | -0.931

# Source: the supplement of paper PMC11348887
